# Source: PubChem BioAssay AID1671190 (National Center for Advancing Translational Sciences (NCATS), 2021)
# Amino acid sequences for entries named in this document (tags omitted). A change or cut given only in a name is not applied to a line headed by its entry.
# UniProt P18054: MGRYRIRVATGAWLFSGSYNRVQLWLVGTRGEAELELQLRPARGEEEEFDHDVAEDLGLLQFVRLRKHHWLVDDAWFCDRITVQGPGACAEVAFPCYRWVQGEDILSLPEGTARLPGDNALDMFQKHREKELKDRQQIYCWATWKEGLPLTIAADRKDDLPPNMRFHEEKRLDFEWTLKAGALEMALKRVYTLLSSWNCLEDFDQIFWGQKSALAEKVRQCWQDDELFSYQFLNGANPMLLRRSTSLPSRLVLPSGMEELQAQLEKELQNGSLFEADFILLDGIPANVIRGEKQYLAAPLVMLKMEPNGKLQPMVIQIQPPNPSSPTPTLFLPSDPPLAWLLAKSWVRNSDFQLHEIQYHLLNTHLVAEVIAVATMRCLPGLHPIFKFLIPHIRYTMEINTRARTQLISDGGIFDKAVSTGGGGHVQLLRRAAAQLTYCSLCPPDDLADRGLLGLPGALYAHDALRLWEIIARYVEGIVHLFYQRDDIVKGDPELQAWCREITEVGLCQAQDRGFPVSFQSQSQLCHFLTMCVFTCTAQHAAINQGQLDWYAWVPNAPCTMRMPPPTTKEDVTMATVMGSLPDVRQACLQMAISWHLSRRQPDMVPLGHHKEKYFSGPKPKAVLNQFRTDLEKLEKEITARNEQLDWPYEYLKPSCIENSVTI
# The campaign covered roughly 580,000 compounds. About 6,100 (1.1%) were called active. This list was built around the results that the source calls inconclusive (neither active nor inactive); the mix of calls is not that of the screen. Calls come from the whole dose curve; as a rule, active = well fitted inhibition curve with a large enough effect; inconclusive = small, poorly fitted or top-dose-only effect, or another doubt; inactive = no such curve, though single readings can be large or run the other way. Potencies beside an inconclusive call are fits to weak or partial responses and may not hold up.
# Target: Polyunsaturated fatty acid lipoxygenase ALOX12 (Homo sapiens) (UniProt P18054)
# Assay: Primary qHTS assay for inhibitors of human arachidonate 12S-lipoxygenase (ALOX12): Round 2
# Conditions: purified 12hLO, xylenol orange hydroperoxide absorbance; activity change, negative = inhibition: at 108 µM (top of the series) unless noted
# In short: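 Hydroperoxide product was detected by ferrous iron/xylenol orange as the 573 to 405 nm absorbance ratio. Arachidonic acid at 40 uM (final) was turned over for 30 min at room temperature by 150 nM human 12hLO, pH 7.0 Hepes buffer, after 15 min compound preincubation.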
# % is set by controls: 0 for no effect and ±100 for the full control effect; potency is the fitted concentration of half-maximal effect.
Structure (SMILES),Potency,"activity change, negative = inhibition"
COc1cc(NC(=S)NCCC(c2ccccc2)c2ccccc2)cc(OC)c1,"inconclusive: 39.8 µM [inhibitor, partial curve, poor fit]",
COc1cccc(CNc2ccccc2O)c1OCc1ccccc1F,"inconclusive: 31.6 µM [inhibitor, partial curve, poor fit]",
CCC1=C(C(=O)OC)C(c2cccc(F)c2)N2C(CC(=O)NCC3CCCO3)=CSC2=N1 (configuration not stated),,inactive: 62.2%
Oc1c(C(Nc2ccccn2)c2cccnc2)cc(Cl)c2cccnc12 (configuration not stated),"inconclusive: 44.7 µM [inhibitor, partial curve, poor fit]",
Cc1cc(C)n(-c2nc3ccccc3nc2N2CCN(S(=O)(=O)c3ccc(F)c(C)c3)CC2)n1,"inconclusive: 3.16 µM [inhibitor, full curve, poor fit]",
CCn1c(CSCc2ccc(C)cc2)nnc1SCC(=O)NCc1ccccc1,"inconclusive: 25.1 µM [inhibitor, single point]",
Cc1noc(C)c1-c1cc2cc(C(C)C)oc2c(-c2c(C)noc2C)n1,"inconclusive: 100 µM [inhibitor, partial curve, poor fit]",
CC1(C)[C@H](Cc2cc(CN3CCCCC3)on2)C[C@@H]1NS(C)(=O)=O,"inconclusive: 50.1 µM [inhibitor, partial curve]",
Cc1cc(-c2ccc(S(=O)(=O)Nc3cccc(Cl)c3C)cc2)on1,,inactive: -29.4%
CNC(=S)N(CCc1c(C)[nH]c2ccc(C)cc12)Cc1cccnc1,,inactive: -26.9%
CCOc1ccc(NC(=O)CN2C(=O)NC3(CCC(C)CC3)C2=O)cc1 (configuration not stated),"inconclusive: 22.4 µM [inhibitor, single point]",
CC(NC(=O)C1CCN(c2cc(C(F)(F)F)ncn2)CC1)c1ccccc1 (configuration not stated),active: 44.7 µM,
Cc1ccc2nc(C)cc(C(=O)N(C)C3CCS(=O)(=O)C3)c2c1 (configuration not stated),,inactive: 9.89%
COc1cccc(C(=O)Oc2ccc(OC(=O)c3cccc(OC)c3)cc2)c1,"inconclusive: 39.8 µM [inhibitor, single point]",
C/C(=N\NC(=O)c1ccc([N+](=O)[O-])cc1)c1cc2ccccc2oc1=O,,inactive: -8.08%
CN(C)c1ncc2nc(-c3ccc(F)cc3)c(=O)n(C[C@H]3CCCO3)c2n1,"inconclusive: 44.7 µM [inhibitor, partial curve, poor fit]",
O=C(Nc1ccccc1Cl)C1CCN(c2ncnc3nc[nH]c23)CC1,"inconclusive: 100 µM [inhibitor, partial curve, poor fit]",
Cc1cc(C(C)(C)C)ccc1OCC(O)Cn1nc(-c2cccs2)oc1=O (configuration not stated),"inconclusive: 15.8 µM [inhibitor, full curve]",
CCOC(=O)CC(=O)CSc1[nH]c(=O)cc(C)c1C#N,"inconclusive: 56.2 µM [inhibitor, partial curve, poor fit]",
Cc1cccc(C)c1NC(=O)CN1C(=O)c2ccccc2Sc2ncccc21,,inactive: -24%
Cc1ccc(-n2cccc2C(=O)NS(=O)(=O)c2ccc(C)cc2)cc1,"inconclusive: 126 µM [inhibitor, partial curve, poor fit]",

Structure (SMILES),Potency,"activity change, negative = inhibition"
Fc1ccc(NC(=S)Nc2ccccc2OC(F)F)cc1Cl,"inconclusive: 50.1 µM [inhibitor, partial curve, poor fit]",
Nc1c(C(=O)Nc2ccccc2)sc2nc(-c3ccco3)ccc12,,inactive: -14.3%
Cn1c(=O)c2c(O)c(Cc3ccccc3)c(=O)n(C)c2n(C)c1=O,,inactive: -9.14%
Cn1c(O)c(/C=N/Nc2ccccc2)c(=O)n(C)c1=O,"inconclusive: 44.7 µM [inhibitor, partial curve, poor fit]",
CN(CCc1ccccn1)c1ccccc1,"inconclusive: 25.1 µM [inhibitor, partial curve, poor fit]",
O=c1c2c(CO)c(-c3ccccc3)nn2ccn1Cc1cccc(C(F)(F)F)c1,,inactive: 30.6%
COc1ccccc1NC(=O)C1=CCN(Cc2ccccc2F)CC1,"inconclusive: 35.5 µM [inhibitor, partial curve, poor fit]",
Nc1ccc2c(S(=O)(=O)O)cccc2c1S(=O)(=O)O,"inconclusive: 70.8 µM [inhibitor, partial curve, poor fit]",
O=C(NCc1coc(-c2cccs2)n1)c1cc(Cl)cc(Cl)c1,"inconclusive: 44.7 µM [inhibitor, partial curve, poor fit]",
CC(=O)Nc1ccc(NC(=O)C2CCCN2c2ncnc3ccccc23)cc1 (configuration not stated),"inconclusive: 79.4 µM [inhibitor, single point]",
COc1cc(OC)c2c(-c3ccccc3)cc(C3CCCCC3)nc2c1,"inconclusive: 39.8 µM [inhibitor, partial curve]",
Clc1ncnc2scc(-c3ccc(Br)cc3)c12,,inactive: 2.81%
CCCCCCn1c(SCC(N)=O)nc2c1c(=O)[nH]c(=O)n2C,"inconclusive: 44.7 µM [inhibitor, partial curve, poor fit]",
O=C(NC(=S)Nc1ccc(S(=O)(=O)N2CCCCCC2)cc1)c1cccs1,"inconclusive: 8.91 µM [inhibitor, full curve, poor fit]",
COc1ccc(Cl)cc1Nc1nc(Cl)nc(NCCO)n1,"inconclusive: 0.891 µM [inhibitor, full curve, poor fit]",
COc1ccc(C(=O)NNC(=S)NC(=O)c2cc(-c3ccccc3)nc3ccccc23)cc1,,inconclusive: -48.1% [inhibitor]
Cc1cc2c(Nc3ccccc3)ncnc2s1,"inconclusive: 22.4 µM [inhibitor, single point]",
CC(=O)N1CCN(c2ccc(OC[C@H]3CO[C@](Cn4ccnc4)(c4ccc(Cl)cc4Cl)O3)cc2)CC1,"inconclusive: 24.3 µM [inhibitor, partial curve]",
CC(C)OCCCNC(=O)c1nn(C)c2c1CSc1ccccc1-2,"inconclusive: 50.1 µM [inhibitor, partial curve, poor fit]",
COc1ccc(S(=O)(=O)C(C#N)c2nc3ccccc3nc2N2CCCCC2)cc1 (configuration not stated),"inconclusive: 3.98 µM [inhibitor, full curve, poor fit]",
CCNc1nc(CN2CCOCC2)nc2sc3c(c12)CCC3,"inconclusive: 35.5 µM [inhibitor, single point]",

# Whole records as entered above:
# `Clc1ncnc2scc(-c3ccc(Br)cc3)c12` is entered as activity change, negative = inhibition: inactive: 2.81%
# `Nc1c(C(=O)Nc2ccccc2)sc2nc(-c3ccco3)ccc12` is entered as activity change, negative = inhibition: inactive: -14.3%
